Source: the supplement of paper PMC3334620
In all, about 33,000 sequences were measured (“E-score (-0.5 to 0.5)”: median about -0.015, highest 2% from about 0.3 on). This is one part of the list.

target: T1, Abf1 (UniProt P14164); assay: PBM E-score (8-mer binding enrichment) (E-score (-0.5 to 0.5)); higher = stronger / more preferred TF binding; conditions: protein concentration: 200 nM; construct: GST-full length
T1 sequence: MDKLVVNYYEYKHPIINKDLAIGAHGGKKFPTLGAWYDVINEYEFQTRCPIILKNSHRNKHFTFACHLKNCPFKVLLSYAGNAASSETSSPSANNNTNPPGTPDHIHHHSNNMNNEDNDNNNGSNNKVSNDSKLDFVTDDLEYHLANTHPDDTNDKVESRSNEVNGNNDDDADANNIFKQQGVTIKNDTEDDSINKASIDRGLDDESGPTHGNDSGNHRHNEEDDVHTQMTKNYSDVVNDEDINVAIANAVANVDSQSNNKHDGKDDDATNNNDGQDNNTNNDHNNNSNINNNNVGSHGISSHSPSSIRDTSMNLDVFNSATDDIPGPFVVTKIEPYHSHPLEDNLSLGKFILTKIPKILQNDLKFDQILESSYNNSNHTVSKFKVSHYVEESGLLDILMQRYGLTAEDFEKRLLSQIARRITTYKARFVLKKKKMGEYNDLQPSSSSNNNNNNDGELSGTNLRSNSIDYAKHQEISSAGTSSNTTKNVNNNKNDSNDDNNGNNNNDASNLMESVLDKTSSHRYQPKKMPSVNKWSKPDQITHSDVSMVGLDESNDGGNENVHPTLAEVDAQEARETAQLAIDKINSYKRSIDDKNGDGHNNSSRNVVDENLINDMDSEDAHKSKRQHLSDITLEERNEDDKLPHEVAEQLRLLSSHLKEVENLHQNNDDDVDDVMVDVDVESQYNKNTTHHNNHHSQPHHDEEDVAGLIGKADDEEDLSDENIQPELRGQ
Outline: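 For each ungapped eight-base word taken together with its reverse complement, the Universal PBM Analysis Suite assigned an E-score. Binding data came from GST-tagged yeast transcription factors, applied at about 100-200 nM, on universal all-10-mer Agilent arrays made double-stranded by primer extension. Fluorescent anti-GST marked bound protein, and scans were normalised with masliner.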

Row | Sequence | PBM E-score
1 | CAGGACCG | -0.182
2 | CTACAGGA | -0.204
3 | AAATGATC | 0.228
4 | CGGGCTCC | -0.173
5 | ACAGGATC | -0.0888
6 | CGTGTGTC | 0.138
7 | ATGCTTCG | 0.134
8 | ACGTTTAG | 0.135
9 | GCCAATTA | 0.0273
10 | GAAACGAA | 0.149
11 | AAAATATG | 0.174
12 | CGGGACTA | -0.0895
13 | CTCACGTC | 0.0288
14 | CGAAGGGC | -0.116
15 | CCCAATTA | -0.154
16 | CCACATGA | 0.139
17 | GAAGTGAC | 0.411
18 | CTATCATA | 0.143
19 | AAACGACT | 0.152
20 | CCCATTTC | -0.182
21 | GTGCGCTA | -0.207
22 | AAATAGCT | -0.066

Row | Sequence | PBM E-score
23 | CTGTTCAA | -0.0275
24 | CACGCTTC | -0.106
25 | ATGGGAAT | -0.165
26 | GCATGCCA | -0.173
27 | CAAAGGCA | -0.0351
28 | TCGTCCAA | 0.22
29 | TATTTTGA | 0.0197
30 | GCCATTTA | 0.0328
31 | CAGCATCA | 0.0773
32 | ACTATACT | 0.118
33 | TTCCCCAA | -0.0413
34 | CAAGTTAA | 0.046
35 | CCCAGCAG | -0.141
36 | AACTGGCA | -0.114
37 | CCGCATGC | -0.15
38 | CGGTACCC | -0.0287
39 | GCGAATAC | 0.0988
40 | AACAATGG | 0.0221
41 | AACTCAAT | -0.0924
42 | AATGTTCG | -0.0357
43 | CCAGGCCA | -0.22
44 | TAGACAAA | 0.0864

Row | Sequence | PBM E-score
45 | CTGCATAC | 0.0495
46 | CCGTCCCC | -0.00209
47 | ATACTTTA | 0.094
48 | ATCTCTAG | -0.0235
49 | AGGACGAG | 0.0242
50 | ACTCATAT | -0.0587
51 | AAAGTGGA | -0.0539
52 | CGCGCTTA | -0.0471
53 | CATTTACA | 0.0271
54 | CTAGTTTA | -0.0332
55 | AATTGTGT | -0.122
56 | GAGAGGCC | -0.201
57 | GGTTGATA | 0.0997
58 | CTTTGCGA | -0.122
59 | AAGGCCTA | -0.117
60 | ACCCTCTG | -0.117
61 | ACTTGACG | 0.026
62 | GAAAGGTC | 0.174
63 | GCATGTTA | 0.00387
64 | CGTGTTAG | 0.186
65 | ATACGGTG | 0.297
66 | AACTACCT | -0.102

Row | Sequence | PBM E-score
67 | CCGGTAAC | -0.117
68 | GCGCAACA | -0.123
69 | ACGACGTA | 0.277
70 | CTAAAGCC | -0.291
71 | ATAAGTTG | -0.0266
72 | ATCAACAA | 0.146
73 | ACGATGCC | -0.0797
74 | GTACGTGA | 0.252
75 | AGGAAGTG | 0.0629
76 | CCGACACC | -0.195
77 | ATGAAATG | -0.0848
78 | GGCTGAAC | -0.0746
79 | GCGTCTTA | -0.22
80 | AATGATTA | 0.273
81 | AAGGATCC | -0.0653
82 | CGTCTCGA | 0.162
83 | GGCGACAC | -0.0713
84 | CCGGCAAG | -0.0614
85 | GTCTATGA | 0.0741
86 | AAATATTG | 0.164

An excerpt of these results, as a markdown table.

| Row | Sequence | PBM E-score |
| --- | --- | --- |
| 62 | GAAAGGTC | 0.174 |
| 63 | GCATGTTA | 0.00387 |
| 64 | CGTGTTAG | 0.186 |
| 65 | ATACGGTG | 0.297 |
| 66 | AACTACCT | -0.102 |
| 68 | GCGCAACA | -0.123 |
| 69 | ACGACGTA | 0.277 |
| 70 | CTAAAGCC | -0.291 |
| 71 | ATAAGTTG | -0.0266 |
| 73 | ACGATGCC | -0.0797 |
| 74 | GTACGTGA | 0.252 |
| 75 | AGGAAGTG | 0.0629 |
| 76 | CCGACACC | -0.195 |
| 77 | ATGAAATG | -0.0848 |
| 78 | GGCTGAAC | -0.0746 |
| 79 | GCGTCTTA | -0.22 |
| 81 | AAGGATCC | -0.0653 |
| 82 | CGTCTCGA | 0.162 |
| 83 | GGCGACAC | -0.0713 |
| 84 | CCGGCAAG | -0.0614 |
| 85 | GTCTATGA | 0.0741 |
| 86 | AAATATTG | 0.164 |
